The values that follow come from publication PMC5661649, “G-protein-coupled receptors mediate 14-3-3 signal transduction” (Signal Transduction and Targeted Therapy, 2016).

The chains behind the UniProt entries cited, without tags or fusion partners.
UniProt P14416: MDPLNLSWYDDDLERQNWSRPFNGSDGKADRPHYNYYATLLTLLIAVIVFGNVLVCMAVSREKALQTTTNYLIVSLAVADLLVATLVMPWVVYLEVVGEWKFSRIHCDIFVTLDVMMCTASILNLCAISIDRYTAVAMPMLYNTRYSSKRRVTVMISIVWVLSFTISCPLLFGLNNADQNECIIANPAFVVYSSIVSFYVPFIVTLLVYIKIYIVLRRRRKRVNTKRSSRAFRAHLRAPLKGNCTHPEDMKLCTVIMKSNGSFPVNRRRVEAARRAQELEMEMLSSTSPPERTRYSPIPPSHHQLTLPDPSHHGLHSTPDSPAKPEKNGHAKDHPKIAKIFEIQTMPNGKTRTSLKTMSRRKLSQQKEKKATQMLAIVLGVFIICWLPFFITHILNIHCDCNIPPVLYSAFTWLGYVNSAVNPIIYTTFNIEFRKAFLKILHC
UniProt P13945: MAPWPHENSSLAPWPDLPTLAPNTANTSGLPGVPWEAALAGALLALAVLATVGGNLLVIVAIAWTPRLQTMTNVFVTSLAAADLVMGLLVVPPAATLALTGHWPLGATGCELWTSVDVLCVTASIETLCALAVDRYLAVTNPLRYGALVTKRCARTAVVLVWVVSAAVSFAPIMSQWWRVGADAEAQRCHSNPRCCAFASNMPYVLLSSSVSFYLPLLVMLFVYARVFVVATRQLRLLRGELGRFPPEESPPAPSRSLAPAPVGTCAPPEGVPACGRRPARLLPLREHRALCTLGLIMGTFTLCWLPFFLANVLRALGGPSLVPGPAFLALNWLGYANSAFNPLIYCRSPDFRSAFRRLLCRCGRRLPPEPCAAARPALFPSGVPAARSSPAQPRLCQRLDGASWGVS
UniProt P35348: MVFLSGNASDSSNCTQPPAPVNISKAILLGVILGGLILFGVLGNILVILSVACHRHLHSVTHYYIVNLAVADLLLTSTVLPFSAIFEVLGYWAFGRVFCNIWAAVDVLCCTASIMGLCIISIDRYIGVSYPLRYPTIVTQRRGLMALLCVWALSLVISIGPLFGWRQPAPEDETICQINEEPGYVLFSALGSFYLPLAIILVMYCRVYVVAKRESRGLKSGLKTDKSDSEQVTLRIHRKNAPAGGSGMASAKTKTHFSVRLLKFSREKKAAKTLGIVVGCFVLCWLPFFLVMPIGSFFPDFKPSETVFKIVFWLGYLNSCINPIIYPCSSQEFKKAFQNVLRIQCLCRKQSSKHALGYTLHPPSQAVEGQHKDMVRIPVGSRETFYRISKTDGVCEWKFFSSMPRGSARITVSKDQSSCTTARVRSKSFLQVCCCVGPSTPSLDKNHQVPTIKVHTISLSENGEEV
UniProt P20309: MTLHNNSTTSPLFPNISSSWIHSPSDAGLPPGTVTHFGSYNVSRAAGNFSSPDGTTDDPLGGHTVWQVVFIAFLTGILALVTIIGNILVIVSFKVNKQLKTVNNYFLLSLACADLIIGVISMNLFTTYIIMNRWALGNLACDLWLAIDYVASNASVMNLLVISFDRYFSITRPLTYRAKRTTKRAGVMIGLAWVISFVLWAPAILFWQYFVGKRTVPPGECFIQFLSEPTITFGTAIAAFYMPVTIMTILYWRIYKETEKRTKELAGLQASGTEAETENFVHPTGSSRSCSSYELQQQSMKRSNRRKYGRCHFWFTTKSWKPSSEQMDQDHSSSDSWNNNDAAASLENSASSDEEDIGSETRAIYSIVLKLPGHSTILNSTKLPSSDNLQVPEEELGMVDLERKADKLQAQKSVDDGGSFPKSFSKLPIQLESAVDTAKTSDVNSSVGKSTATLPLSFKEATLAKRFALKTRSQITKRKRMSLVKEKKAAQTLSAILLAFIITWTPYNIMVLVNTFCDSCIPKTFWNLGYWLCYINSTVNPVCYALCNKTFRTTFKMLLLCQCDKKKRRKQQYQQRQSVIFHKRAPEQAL
UniProt P08912: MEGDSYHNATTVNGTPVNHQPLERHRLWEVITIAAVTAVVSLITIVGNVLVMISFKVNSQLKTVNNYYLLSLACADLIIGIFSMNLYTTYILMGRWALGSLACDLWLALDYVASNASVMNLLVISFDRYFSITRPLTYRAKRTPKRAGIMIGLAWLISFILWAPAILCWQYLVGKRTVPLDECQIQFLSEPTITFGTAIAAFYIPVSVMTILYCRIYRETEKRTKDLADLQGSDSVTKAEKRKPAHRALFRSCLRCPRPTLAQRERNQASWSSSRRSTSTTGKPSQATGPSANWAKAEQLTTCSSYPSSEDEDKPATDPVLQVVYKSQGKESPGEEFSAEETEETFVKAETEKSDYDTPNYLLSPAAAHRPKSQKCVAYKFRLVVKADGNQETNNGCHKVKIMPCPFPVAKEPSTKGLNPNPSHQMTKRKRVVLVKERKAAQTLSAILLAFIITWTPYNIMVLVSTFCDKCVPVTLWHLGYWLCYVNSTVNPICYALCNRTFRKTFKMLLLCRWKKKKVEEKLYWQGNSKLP
UniProt P62258: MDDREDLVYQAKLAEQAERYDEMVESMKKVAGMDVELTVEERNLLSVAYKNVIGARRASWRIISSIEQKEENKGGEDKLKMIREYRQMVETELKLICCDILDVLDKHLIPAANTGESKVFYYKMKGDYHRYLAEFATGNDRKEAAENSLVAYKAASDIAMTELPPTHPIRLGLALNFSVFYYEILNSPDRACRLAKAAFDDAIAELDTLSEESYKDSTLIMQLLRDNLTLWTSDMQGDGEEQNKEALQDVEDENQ
UniProt P63104: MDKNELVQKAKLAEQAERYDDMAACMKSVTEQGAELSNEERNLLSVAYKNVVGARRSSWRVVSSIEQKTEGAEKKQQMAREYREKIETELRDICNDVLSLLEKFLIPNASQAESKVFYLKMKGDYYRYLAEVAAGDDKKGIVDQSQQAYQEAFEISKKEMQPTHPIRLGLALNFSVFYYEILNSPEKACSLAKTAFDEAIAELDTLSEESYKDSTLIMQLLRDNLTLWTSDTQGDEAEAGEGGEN
UniProt P32121: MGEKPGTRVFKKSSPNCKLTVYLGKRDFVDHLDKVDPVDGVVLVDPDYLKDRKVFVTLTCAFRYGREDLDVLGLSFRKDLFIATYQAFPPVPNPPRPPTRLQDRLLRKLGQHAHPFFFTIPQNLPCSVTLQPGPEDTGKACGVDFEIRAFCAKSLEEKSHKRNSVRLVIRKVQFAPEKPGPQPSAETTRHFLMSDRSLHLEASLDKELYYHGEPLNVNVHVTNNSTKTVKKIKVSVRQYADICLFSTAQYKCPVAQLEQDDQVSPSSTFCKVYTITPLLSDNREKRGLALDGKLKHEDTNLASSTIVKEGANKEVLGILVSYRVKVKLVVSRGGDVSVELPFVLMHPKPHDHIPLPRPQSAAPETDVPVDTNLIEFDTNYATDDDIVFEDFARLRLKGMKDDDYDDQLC

Holding throughout (assay): LinkLight (TEV protease on one partner cleaves permuted luciferase on the other)
Test [1] addresses β2-adrenergic receptor (ADRB2) fused to permuted luciferase (human) (UniProt P07550).
Test [2] has as its target dopamine receptor D2 (DRD2) fused to TEV protease (human) (UniProt P14416).
In test [3] the target is β3 adrenergic receptor (ADRB3) fused to TEV protease (human) (UniProt P13945).
The target in test [4] is Alpha adrenergic receptor 1A (α1AR) fused to TEV protease (human) (UniProt P35348).
The target of test [5] is muscarinic cholinergic receptor 3 (CHRM3) fused to TEV protease (human) (UniProt P20309).
Test [6] concerns the target adenosine receptor A2a (ADORA2A) fused to TEV protease (human) (UniProt P29274).
Test [7] has as its target muscarinic cholinergic receptor 5 (CHRM5) fused to TEV protease (human) (UniProt P08912).
In test [8] the target is β2-adrenergic receptor (ADRB2) fused to tobacco etch virus (TEV) protease (human) (UniProt P07550).
For test [9], the target named is Raf-1 fused to TEV protease (UniProt P04049).

These are yes or no findings as the source states them, for the method shown. Some binding calls cover weakened binding; strength is not graded here.

Turning to “14-3-3 epsilon fused to TEV protease (from UniProt P62258 1-255)”, the binding result in test [1] was “binds”.
Regarding “14-3-3 epsilon fused to permuted luciferase (from UniProt P62258 1-255)”, the binding entry in test [2], in test [3], in test [4], in [5], in test [6] and in test [7] was “binds” each time. The binding entry in test [8] is reported as “binds”.
On to “14-3-3 epsilon fused to permuted luciferase (in U2OS cells) (from UniProt P62258 1-255)”, for which the binding result in test [9] is reported as “binds”.
Consider “14-3-3 zeta fused to permuted luciferase (from UniProt P63104 1-245)”, for which the binding entry in test [8] is on record as “binds”.
As to “β-arrestin-2-permuted luciferase (from UniProt P32121 1-409)”, in test [4], the binding entry was “binds”.
